Construct, isoform or probe ends are uncertain for at least one entry. For part of these data: Weaker means in comparison with the reference protein, sequence or condition of that experiment. At least one verdict was read from the data and is not stated in words by the source. Tags and fusion partners may be left off the protein sequences shown.
How the values were obtained:
[1] = biological target: T1, NurA (Saccharolobus solfataricus) (UniProt Q97WH1); test: EMSA; details: NurA alone, increasing amounts; EMSA: 5 pmol fluorescent DNA in 10 ul, 20 mM HEPES/NaOH pH 7.5, 35 mM beta-mercaptoethanol, 500 mM NaCl, 10 min room …; recombinant protein; single-stranded DNA
T1 sequence (looked up, limits assumed): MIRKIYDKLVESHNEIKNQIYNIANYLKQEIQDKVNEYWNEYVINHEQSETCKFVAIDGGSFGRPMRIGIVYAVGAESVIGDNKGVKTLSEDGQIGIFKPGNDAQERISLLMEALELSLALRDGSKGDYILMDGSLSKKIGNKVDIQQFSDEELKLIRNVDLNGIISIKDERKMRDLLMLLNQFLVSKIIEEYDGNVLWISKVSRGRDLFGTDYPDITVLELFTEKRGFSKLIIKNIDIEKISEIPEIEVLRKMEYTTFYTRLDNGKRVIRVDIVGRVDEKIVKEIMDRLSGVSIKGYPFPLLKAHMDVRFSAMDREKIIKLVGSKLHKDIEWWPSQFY

[2] = biological target: T2, HerA (Saccharolobus solfataricus) (UniProt Q97WG8); test: EMSA; details: EMSA: 5 pmol fluorescent DNA in 10 ul, 20 mM HEPES/NaOH pH 7.5, 35 mM beta-mercaptoethanol, 500 mM NaCl, 10 min room temperature, recombinant protein, single-stranded DNA
T2 sequence (looked up, limits assumed): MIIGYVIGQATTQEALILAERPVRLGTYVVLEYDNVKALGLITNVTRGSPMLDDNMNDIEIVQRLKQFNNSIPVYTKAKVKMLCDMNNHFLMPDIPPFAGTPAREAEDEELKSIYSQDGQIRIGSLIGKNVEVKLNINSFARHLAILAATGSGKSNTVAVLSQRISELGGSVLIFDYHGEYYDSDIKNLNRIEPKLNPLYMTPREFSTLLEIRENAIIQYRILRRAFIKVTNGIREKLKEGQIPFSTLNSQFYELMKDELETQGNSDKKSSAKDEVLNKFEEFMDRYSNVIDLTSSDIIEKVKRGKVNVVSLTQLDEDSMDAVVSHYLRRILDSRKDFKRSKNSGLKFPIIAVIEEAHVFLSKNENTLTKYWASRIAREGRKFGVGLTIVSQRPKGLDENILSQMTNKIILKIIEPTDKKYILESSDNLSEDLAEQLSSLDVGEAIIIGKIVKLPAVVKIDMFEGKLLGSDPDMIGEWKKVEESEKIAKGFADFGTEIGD

[3] = in NurA/HerA with SSB: HerA binding reduced

Does GTTTTCCCAGTCACGAC [17 merTAMRA] bind [1]?
Result: binds

Does GTTTTCCCAGTCACGAC [17 merTAMRA] bind ([2]; in NurA/HerA with 1.5 pmol SSB: HerA-bound DNA reduced)?
Result: binds more weakly

Does GTTTTCCCAGTCACGAC [17 merTAMRA] bind ([2]; with SSB: HerA shift reduced)?
Result: binds more weakly

Does “CGTGACTTGATGTTAACCCTAACCCTAAGAATTCGGCTTAAGTGAGTGTGAGGATATCATGTACGATAGC [70 leadCy5 (70 mer)]” bind [2, 3]?
Result: binds more weakly

Does “GCCGTGATCACCAATGCAGATTGACGAACCTTTGCCCACGT [40 merCy3]” bind [2, 3]?
Result: binds more weakly

Does GCTATCGTACATGATATCCTC [21 merTAMRA] bind [2, 3]?
Result: binds more weakly
